Results are given in words; binding and its absence hold for the method and conditions named. Some results given as binding are weak or reduced against the parent protein; the word gives no strength.
Experiments:
[1] = biological target: T1, full-length fibrillarin (in the recombinant RNP complex) (human) (UniProt P22087); assay: co-purification by IMAC; subunits co-expressed in E. coli BL21 DE3 from one plasmid; IMAC (nickel beads) under native conditions, 4 °C; lysis buffer 50 mM Tris-HCl pH 8, 300 mM NaCl, 20 mM imidazole, 10% glycerol, 0.1% Triton X-100; seen on SDS-PAGE
T1 sequence: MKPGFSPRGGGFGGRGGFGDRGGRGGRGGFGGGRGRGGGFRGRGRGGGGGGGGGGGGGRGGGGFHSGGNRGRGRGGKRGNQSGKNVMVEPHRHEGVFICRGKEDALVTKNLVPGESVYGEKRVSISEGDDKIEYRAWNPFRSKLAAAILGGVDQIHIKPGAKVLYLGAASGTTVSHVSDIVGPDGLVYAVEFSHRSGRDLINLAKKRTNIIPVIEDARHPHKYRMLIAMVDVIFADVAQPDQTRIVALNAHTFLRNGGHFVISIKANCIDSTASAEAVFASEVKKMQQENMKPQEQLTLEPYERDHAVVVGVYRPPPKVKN

Sequences of proteins named here, by UniProt entry; tags and fusion partners are left off.
UniProt O00567: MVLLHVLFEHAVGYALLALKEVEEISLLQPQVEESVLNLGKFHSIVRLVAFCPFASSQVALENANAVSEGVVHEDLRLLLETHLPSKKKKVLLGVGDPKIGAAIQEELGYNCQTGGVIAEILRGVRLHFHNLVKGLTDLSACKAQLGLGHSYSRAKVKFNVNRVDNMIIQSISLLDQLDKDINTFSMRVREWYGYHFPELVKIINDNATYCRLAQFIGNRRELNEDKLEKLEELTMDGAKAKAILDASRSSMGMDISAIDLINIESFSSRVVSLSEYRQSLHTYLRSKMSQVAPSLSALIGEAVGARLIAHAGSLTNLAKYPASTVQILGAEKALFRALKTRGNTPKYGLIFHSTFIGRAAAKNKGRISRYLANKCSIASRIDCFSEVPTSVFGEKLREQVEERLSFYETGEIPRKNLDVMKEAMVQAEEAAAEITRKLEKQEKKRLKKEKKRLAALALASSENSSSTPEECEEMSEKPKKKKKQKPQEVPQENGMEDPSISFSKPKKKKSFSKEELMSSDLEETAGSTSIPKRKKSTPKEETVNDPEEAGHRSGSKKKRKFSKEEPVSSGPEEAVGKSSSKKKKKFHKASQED

[2] = biological target: T2, truncated fibrillarin (from amino acid 82 to 321), GAR domain absent (in the RNP ΔGAR complex) (human) (UniProt P22087); assay: as above
T2 sequence: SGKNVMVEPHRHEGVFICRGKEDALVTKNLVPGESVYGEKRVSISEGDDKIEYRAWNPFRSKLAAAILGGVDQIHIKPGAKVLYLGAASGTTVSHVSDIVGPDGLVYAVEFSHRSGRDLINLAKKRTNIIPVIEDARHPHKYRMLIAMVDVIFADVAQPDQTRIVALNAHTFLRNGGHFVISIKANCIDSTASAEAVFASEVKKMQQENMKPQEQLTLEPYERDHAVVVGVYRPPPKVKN

For Nop56 (from UniProt O00567 1-594), the binding [1] was “binds” and the binding [2] was “binds”.

B1: Nop58 (protein, UniProt Q9Y2X3 1-529)
chain: MLVLFETSVGYAIFKVLNEKKLQEVDSLWKEFETPEKANKIVKLKHFEKFQDTAEALAAFTALMEGKINKQLKKVLKKIVKEAHEPLAVADAKLGGVIKEKLNLSCIHSPVVNELMRGIRSQMDGLIPGVEPREMAAMCLGLAHSLSRYRLKFSADKVDTMIVQAISLLDDLDKELNNYIMRCREWYGWHFPELGKIISDNLTYCKCLQKVGDRKNYASAKLSELLPEEVEAEVKAAAEISMGTEVSEEDICNILHLCTQVIEISEYRTQLYEYLQNRMMAIAPNVTVMVGELVGARLIAHAGSLLNLAKHAASTVQILGAEKALFRALKSRRDTPKYGLIYHASLVGQTSPKHKGKISRMLAAKTVLAIRYDAFGEDSSSAMGVENRAKLEARLRTLEDRGIRKISGTGKALAKTEKYEHKSEVKTYDPSGDSTLPTCSKKRKIEQVDKEDEITEKKAKKAKIKVKVEEEEEEKVAEEEETSVKKKKKRGKKKHIKEEPLSEEEPCTSTAIASPEKKKKKKKKRENED
In the case of B1, the binding [1] is reported as “binds” and the binding [2] is reported as “binds”.

B2: 15.5K (protein, UniProt P55769 1-128)
chain: MTEADVNPKAYPLADAHLTKKLLDLVQQSCNYKQLRKGANEATKTLNRGISEFIVMAADAEPLEIILHLPLLCEDKNVPYVFVRSKQALGRACGVSRPVIACSVTIKEGSQLKQQIQSIQQSIERLLV
With B2 the binding [1] was “binds” and the binding [2] was “binds”.

— PMC7290794
